Publication PMC10458163

Chains of the proteins cited; added tags and fusions are not shown.
UniProt P61088: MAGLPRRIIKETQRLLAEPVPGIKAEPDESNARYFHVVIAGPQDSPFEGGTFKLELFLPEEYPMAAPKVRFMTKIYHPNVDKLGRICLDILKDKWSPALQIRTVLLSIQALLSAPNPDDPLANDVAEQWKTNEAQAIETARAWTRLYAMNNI

Molecular target: T1, Flag-OTUD6A (human) (UniProt Q7L8S5)
T1 sequence: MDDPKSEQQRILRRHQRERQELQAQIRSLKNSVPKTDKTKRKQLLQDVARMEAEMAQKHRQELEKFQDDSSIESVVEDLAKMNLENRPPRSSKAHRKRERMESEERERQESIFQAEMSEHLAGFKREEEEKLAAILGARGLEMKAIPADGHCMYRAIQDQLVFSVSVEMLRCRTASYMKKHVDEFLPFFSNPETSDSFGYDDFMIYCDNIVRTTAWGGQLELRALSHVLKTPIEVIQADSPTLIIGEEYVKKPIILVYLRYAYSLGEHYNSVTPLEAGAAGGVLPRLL
Experiment: affinity purification with mass spectrometry; Flag-OTUD6A or empty vector overexpressed in HEK 293 cells, enriched with Flag antibody (FLAG-M2 beads), mass spectrometry

binding: binds
Substance: ubiquitin-conjugating enzyme UBE2N (UBC13) (from UniProt P61088 1-152)

Results are given in words; binding and its absence hold for the method and conditions named. Binding seen in cells or lysates may run through a third protein. These calls come from enrichment with a bait or labelling near it, and not all partners need be listed. Sequences can lack the tags named with a protein.
